These are yes or no findings as the source states them, for the method shown. Binding calls can cover weak binding; strength is not graded here. Where a sequence is shown, tags or fusion partners need not be part of it.
Tests used:
[1] = target: T1, Arabidopsis TPR1, full length, yeast two-hybrid fusion (Arabidopsis thaliana) (UniProt Q0WV90); assay: two-hybrid
T1 sequence: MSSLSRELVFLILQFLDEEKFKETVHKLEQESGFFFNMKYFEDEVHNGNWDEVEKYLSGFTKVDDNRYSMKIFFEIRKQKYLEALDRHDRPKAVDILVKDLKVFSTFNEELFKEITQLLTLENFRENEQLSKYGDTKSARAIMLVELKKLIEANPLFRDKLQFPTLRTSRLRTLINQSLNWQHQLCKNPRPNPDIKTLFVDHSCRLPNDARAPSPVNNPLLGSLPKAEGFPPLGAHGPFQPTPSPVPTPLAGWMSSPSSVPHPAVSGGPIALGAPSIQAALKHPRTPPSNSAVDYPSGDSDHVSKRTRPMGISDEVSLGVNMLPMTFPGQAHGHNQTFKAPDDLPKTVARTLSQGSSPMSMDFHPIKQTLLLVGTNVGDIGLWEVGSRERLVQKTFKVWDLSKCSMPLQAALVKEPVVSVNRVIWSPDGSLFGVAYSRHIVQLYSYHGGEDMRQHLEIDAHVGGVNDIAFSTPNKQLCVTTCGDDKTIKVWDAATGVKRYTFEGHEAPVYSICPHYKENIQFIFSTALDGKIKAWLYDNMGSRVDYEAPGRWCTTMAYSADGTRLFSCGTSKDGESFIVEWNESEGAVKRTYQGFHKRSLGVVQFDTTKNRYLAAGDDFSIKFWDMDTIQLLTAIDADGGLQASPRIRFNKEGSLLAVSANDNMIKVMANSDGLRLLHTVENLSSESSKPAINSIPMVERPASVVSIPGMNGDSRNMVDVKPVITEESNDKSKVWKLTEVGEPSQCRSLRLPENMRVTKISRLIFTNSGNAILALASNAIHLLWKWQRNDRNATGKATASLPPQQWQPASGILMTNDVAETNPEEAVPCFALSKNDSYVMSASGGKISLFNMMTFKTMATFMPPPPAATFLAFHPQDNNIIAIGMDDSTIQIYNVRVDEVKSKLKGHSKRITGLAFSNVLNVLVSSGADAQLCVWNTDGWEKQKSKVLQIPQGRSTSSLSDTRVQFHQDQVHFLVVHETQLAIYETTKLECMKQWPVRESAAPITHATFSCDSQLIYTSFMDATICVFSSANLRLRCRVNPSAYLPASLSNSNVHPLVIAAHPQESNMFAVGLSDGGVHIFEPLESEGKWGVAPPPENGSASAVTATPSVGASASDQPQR

[2] = target: T2, Arabidopsis TPL (AtTPL), yeast two-hybrid fusion (Arabidopsis thaliana) (UniProt Q94AI7); assay: two-hybrid
T2 sequence: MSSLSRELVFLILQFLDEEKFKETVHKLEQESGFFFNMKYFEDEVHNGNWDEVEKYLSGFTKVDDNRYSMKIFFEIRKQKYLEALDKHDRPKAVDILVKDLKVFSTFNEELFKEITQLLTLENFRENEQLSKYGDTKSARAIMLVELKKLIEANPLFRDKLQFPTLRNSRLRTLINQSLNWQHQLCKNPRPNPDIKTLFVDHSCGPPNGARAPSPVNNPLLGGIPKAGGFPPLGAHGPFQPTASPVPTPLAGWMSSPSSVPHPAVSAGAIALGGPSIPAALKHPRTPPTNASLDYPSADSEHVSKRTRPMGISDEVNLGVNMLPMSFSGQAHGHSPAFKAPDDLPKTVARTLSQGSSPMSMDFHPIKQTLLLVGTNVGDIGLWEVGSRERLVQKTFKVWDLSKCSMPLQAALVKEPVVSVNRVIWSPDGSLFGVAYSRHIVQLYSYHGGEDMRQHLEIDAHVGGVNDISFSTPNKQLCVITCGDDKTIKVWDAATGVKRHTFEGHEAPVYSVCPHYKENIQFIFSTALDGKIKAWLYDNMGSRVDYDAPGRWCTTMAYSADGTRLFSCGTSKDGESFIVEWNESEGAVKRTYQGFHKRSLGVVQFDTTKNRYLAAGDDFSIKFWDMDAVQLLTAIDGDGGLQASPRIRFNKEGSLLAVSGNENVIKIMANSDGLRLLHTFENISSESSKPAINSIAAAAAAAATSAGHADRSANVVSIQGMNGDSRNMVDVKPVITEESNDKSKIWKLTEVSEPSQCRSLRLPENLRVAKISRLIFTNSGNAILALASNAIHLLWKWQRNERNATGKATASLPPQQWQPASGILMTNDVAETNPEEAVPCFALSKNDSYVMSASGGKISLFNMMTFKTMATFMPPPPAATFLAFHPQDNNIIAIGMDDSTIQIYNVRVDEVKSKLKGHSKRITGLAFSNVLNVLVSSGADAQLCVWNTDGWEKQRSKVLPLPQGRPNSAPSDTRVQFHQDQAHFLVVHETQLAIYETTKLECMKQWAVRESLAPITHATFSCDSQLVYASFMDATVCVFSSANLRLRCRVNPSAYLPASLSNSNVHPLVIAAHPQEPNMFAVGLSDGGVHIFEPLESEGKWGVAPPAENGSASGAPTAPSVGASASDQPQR

**Q.** “SIX8Foa, yeast two-hybrid fusion (Fusarium oxysporum strain Fo5176)” was tested. Which binding [1] did it give?
**A.** binds

**Q.** What about the binding [2] of the same substance?
**A.** binds

From paper PMC10754003
